# Laboratory results from the supplement of paper PMC8728848.
# Some of the results follow.
# B1: GroEL (Clostridium difficile), Q18CT5 (protein)
# chain: MAKEIKFSEETRRALEAGVNKLADTVKVTLGPKGRNVILDKKFGSPLITNDGVTIAKEIELEDRFENMGAQLVKEVATKTNDVAGDGTTTATVLAQAIIREGLKNVTAGANPILLRKGIQKAVTVAVEELKNQSRIVETQEAISQVASISAGDEEVGKLIAEAMEIVGKDGVITVEESQTMNTELDAVEGMQFDRGFVSAYMVTDVDKMEAVLNDPYILITDKKISNIQELLPVLEQIVQQGKKLLIIAEDVEGEALSTLVVNKLRGTFDVVAVKAPGFGDRRKEMLQDIAILTGAQVISEELGYDLKEADLSMLGRASSVKVTKESTTIVDGSGDKKAIEDRVTQIKHQVEQTTSDFDREKLMERLAKLAGGVAVVKVGAATEVELKERKLRIEDALNATRAAVEEGIVAGGGTAFVSVIPAIGTLIESLEGEVKLGAQIVKKALEEPLRQIAINAGLEGAVIVQNVVNSEAETGFDALNEKYVNMIEAGIVDPTKVSRSALQNAASIASTFLTTEAAVADLPEKEDAGMPGMGGGMPGMM
# Tests used:
# Test in all cases: glycan array binding signal (z-score within array); higher = stronger binding
# Settings in all cases: glycan notation: IUPAC condensed, linker removed
# [1] = molecular target: Fuc(a1-3)[Gal(b1-4)]Glc6S
# In short: (§1)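 The binding signal is a Z-score computed within each array and averaged over linkers. Arrays of the same protein sequence at different concentrations or buffers were also averaged together. Data originate from 3228 arrays in the Consortium for Functional Glycomics database, kept only where the protein sequence was available.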
# [2] = molecular target: Fuc(a1-3)[Gal(b1-4)]GlcNAc
# In short: as §1
# [3] = molecular target: Fuc(a1-3)[Gal(b1-4)]GlcNAc(b1-2)Man
# In short: as §1
# [4] = molecular target: Fuc(a1-3)[Gal(b1-4)]GlcNAc(b1-2)Man(a1-3)[Fuc(a1-3)[Gal(b1-4)]GlcNAc(b1-2)Man(a1-6)]Man(b1-4)GlcNAc(b1-4)GlcNAc
# In short: as §1
# [5] = molecular target: Fuc(a1-3)[Gal(b1-4)]GlcNAc(b1-2)Man(a1-3)[Fuc(a1-3)[Gal(b1-4)]GlcNAc(b1-2)Man(a1-6)]Man(b1-4)GlcNAc(b1-4)[Fuc(a1-6)]GlcNAc
# In short: as §1
# [6] = molecular target: Fuc(a1-3)[Gal(b1-4)]GlcNAc(b1-3)Gal(b1-3)[Fuc(a1-4)]GlcNAc
# In short: as §1
# [7] = molecular target: Fuc(a1-3)[Gal(b1-4)]GlcNAc(b1-3)Gal(b1-4)[Fuc(a1-3)]GlcNAc
# In short: as §1
# [8] = molecular target: Fuc(a1-3)[Gal(b1-4)]GlcNAc(b1-3)Gal(b1-4)[Fuc(a1-3)]GlcNAc(b1-3)Gal(b1-4)[Fuc(a1-3)]GlcNAc
# In short: as §1
# [9] = molecular target: Fuc(a1-3)[Gal(b1-4)]GlcNAc(b1-3)GalNAc
# In short: as §1
# [10] = molecular target: Fuc(a1-3)[Gal(b1-4)]GlcNAc(b1-6)GalNAc
# In short: as §1
# [11] = molecular target: Fuc(a1-3)[Gal(b1-4)]GlcNAc(b1-6)[Gal(b1-3)GlcNAc(b1-3)]Gal(b1-4)Glc
# In short: as §1
# [12] = molecular target: Fuc(a1-3)[Gal(b1-4)]GlcNAc6S
# In short: as §1
# [13] = molecular target: Fuc(a1-3)[Gal3S(b1-4)]Glc
# In short: as §1
# [14] = molecular target: Fuc(a1-3)[Gal3S(b1-4)]GlcNAc
# In short: as §1
# [15] = molecular target: Fuc(a1-3)[Gal3S(b1-4)]GlcNAc6S
# In short: as §1
# [16] = molecular target: Fuc(a1-3)[GalNAc(b1-4)]GlcNAc
# In short: as §1
# [17] = molecular target: Fuc(a1-3)[GalNAc(b1-4)]GlcNAc6S
# In short: as §1
# Fuc(a1-4)GlcNAc = molecular target: Fuc(a1-4)GlcNAc
# In short: as §1
# Fuc(b1-3)GlcNAc = molecular target: Fuc(b1-3)GlcNAc
# In short: as §1
# Gal(a1-2)Gal = molecular target: Gal(a1-2)Gal
# In short: as §1
# Gal(a1-3)Gal = molecular target: Gal(a1-3)Gal
# In short: as §1
# Gal(a1-3)Gal(b1-3)GlcNAc = molecular target: Gal(a1-3)Gal(b1-3)GlcNAc
# In short: as §1
# [18] = molecular target: Gal(a1-3)Gal(b1-3)GlcNAc(b1-2)Man
# In short: as §1
# [19] = molecular target: Gal(a1-3)Gal(b1-3)GlcNAc(b1-2)Man(a1-3)[Gal(a1-3)Gal(b1-3)GlcNAc(b1-2)Man(a1-6)]Man(b1-4)GlcNAc(b1-4)GlcNAc
# In short: as §1
# [20] = molecular target: Gal(a1-3)Gal(b1-3)GlcNAc(b1-3)GalNAc
# In short: as §1
# [21] = molecular target: Gal(a1-3)Gal(b1-3)GlcNAc(b1-6)GalNAc
# In short: as §1
# [22] = molecular target: Gal(a1-3)Gal(b1-3)[Fuc(a1-4)]GlcNAc(b1-2)Man(a1-3)[Gal(a1-3)Gal(b1-3)[Fuc(a1-4)]GlcNAc(b1-2)Man(a1-6)]Man(b1-4)GlcNAc(b1-4)GlcNAc
# In short: as §1
# Gal(a1-3)Gal(b1-4)Glc = molecular target: Gal(a1-3)Gal(b1-4)Glc
# In short: as §1
# Gal(a1-3)Gal(b1-4)GlcNAc = molecular target: Gal(a1-3)Gal(b1-4)GlcNAc
# In short: as §1
# [23] = molecular target: Gal(a1-3)Gal(b1-4)GlcNAc(b1-2)Man
# In short: as §1
binder,measurement,setting,value
B1,glycan array binding signal (z-score),[1],-0.05
same,glycan array binding signal (z-score),[2],-0.07
same,glycan array binding signal (z-score),[3],-0.172
same,glycan array binding signal (z-score),[4],-1.04
same,glycan array binding signal (z-score),[5],-2.09
same,glycan array binding signal (z-score),[6],0.108
same,glycan array binding signal (z-score),[7],0.779
same,glycan array binding signal (z-score),[8],-1.52
same,glycan array binding signal (z-score),[9],-0.464
same,glycan array binding signal (z-score),[10],0.326
same,glycan array binding signal (z-score),[11],-0.995
same,glycan array binding signal (z-score),[12],0.508
same,glycan array binding signal (z-score),[13],-0.085
same,glycan array binding signal (z-score),[14],-1.14
same,glycan array binding signal (z-score),[15],0.173
same,glycan array binding signal (z-score),[16],0.36
same,glycan array binding signal (z-score),[17],-0.461
same,glycan array binding signal (z-score),Fuc(a1-4)GlcNAc,-0.836
same,glycan array binding signal (z-score),Fuc(b1-3)GlcNAc,1.27
same,glycan array binding signal (z-score),Gal(a1-2)Gal,-0.524
same,glycan array binding signal (z-score),Gal(a1-3)Gal,-1.17
same,glycan array binding signal (z-score),Gal(a1-3)Gal(b1-3)GlcNAc,-0.198
same,glycan array binding signal (z-score),[18],-0.098
same,glycan array binding signal (z-score),[19],0.037
same,glycan array binding signal (z-score),[20],0.846
same,glycan array binding signal (z-score),[21],0.01
same,glycan array binding signal (z-score),[22],0.344
same,glycan array binding signal (z-score),Gal(a1-3)Gal(b1-4)Glc,-0.06
same,glycan array binding signal (z-score),Gal(a1-3)Gal(b1-4)GlcNAc,0.298
same,glycan array binding signal (z-score),[23],-0.268
